In publication PMC6733791 one finds binding data, which are given here for four molecules.

Sequences of proteins named here, by UniProt entry; tags and fusion partners are left off.
UniProt P11142: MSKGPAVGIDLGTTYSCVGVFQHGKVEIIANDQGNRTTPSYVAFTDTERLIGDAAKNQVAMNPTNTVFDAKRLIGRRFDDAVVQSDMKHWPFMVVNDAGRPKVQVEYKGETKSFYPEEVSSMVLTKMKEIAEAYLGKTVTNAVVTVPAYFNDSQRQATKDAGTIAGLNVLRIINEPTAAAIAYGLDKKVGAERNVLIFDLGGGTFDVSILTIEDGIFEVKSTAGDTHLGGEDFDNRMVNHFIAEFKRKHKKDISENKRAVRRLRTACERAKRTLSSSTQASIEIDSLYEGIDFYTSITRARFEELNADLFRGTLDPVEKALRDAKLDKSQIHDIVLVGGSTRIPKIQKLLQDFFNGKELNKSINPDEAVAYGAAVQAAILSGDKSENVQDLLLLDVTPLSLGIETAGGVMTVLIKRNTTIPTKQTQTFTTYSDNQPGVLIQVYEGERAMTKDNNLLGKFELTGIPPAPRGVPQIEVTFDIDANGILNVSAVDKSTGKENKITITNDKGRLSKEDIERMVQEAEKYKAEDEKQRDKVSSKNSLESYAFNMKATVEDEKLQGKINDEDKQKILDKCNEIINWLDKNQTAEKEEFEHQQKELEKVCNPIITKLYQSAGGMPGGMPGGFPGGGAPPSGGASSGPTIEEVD

Common to all, as to assay: affinity purification with mass spectrometry; immunoprecipitates of anti-YAP and anti-TFCP2 antibodies from Bel-7402 cells; gel bands digested with trypsin, Nano-LC ESI-QTOF-MS, MASCOT against Swiss-Prot
Assay [1] concerns the target T1, transcription factor CP2 (TFCP2), endogenous (human (endogenous in Bel-7402 and SMMC-7721)) (UniProt Q12800).
T1 sequence: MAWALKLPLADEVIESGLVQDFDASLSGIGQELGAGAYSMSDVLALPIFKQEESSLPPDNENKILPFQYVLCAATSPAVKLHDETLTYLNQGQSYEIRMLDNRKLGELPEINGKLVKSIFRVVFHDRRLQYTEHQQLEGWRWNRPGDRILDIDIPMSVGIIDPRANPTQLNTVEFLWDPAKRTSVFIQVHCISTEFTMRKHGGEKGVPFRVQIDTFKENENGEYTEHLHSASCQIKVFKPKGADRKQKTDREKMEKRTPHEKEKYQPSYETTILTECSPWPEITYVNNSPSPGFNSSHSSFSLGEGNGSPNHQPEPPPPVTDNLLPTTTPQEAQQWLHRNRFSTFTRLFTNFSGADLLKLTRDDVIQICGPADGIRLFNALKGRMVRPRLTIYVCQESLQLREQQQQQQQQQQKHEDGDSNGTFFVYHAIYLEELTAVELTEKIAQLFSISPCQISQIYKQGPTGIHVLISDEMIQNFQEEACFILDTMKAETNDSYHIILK

Assay [2] concerns the target Yes-associated protein (YAP), endogenous (human (endogenous in Bel-7402 and SMMC-7721)) (UniProt P46937).
Assay [3] has the same target. The source holds these as a separate data set.
For assay [4], the target named is T1, transcription factor CP2 (TFCP2), endogenous (human (endogenous in Bel-7402 and SMMC-7721)). This is another data set of the same source.

Where two headings read alike, the source gives them in different places. No constants are given. Whether binding was seen depends on the method and setting. Binding seen in cells or lysates may run through a third protein. A yes stands for co-enrichment or nearness to the bait. Other partners may have been found.

Consider “HSPA8, endogenous (from UniProt P11142 1-646)”, for which, in assay [1], the binding result is recorded as “binds”.

Regarding “VCP, endogenous (from UniProt P55072 1-806)”, the binding entry in assay [2] and in assay [1] was “binds” throughout.

In the case of “p53, endogenous (from UniProt P04637 1-393)”, the binding result in assay [2] and in assay [1] was “binds” throughout.

B1: CCT2, endogenous (protein, UniProt P78371 1-535)
chain: MASLSLAPVNIFKAGADEERAETARLTSFIGAIAIGDLVKSTLGPKGMDKILLSSGRDASLMVTNDGATILKNIGVDNPAAKVLVDMSRVQDDEVGDGTTSVTVLAAELLREAESLIAKKIHPQTIIAGWREATKAAREALLSSAVDHGSDEVKFRQDLMNIAGTTLSSKLLTHHKDHFTKLAVEAVLRLKGSGNLEAIHIIKKLGGSLADSYLDEGFLLDKKIGVNQPKRIENAKILIANTGMDTDKIKIFGSRVRVDSTAKVAEIEHAEKEKMKEKVERILKHGINCFINRQLIYNYPEQLFGAAGVMAIEHADFAGVERLALVTGGEIASTFDHPELVKLGSCKLIEEVMIGEDKLIHFSGVALGEACTIVLRGATQQILDEAERSLHDALCVLAQTVKDSRTVYGGGCSEMLMAHAVTQLANRTPGKEAVAMESYAKALRMLPTIIADNAGYDSADLVAQLRAAHSEGNTTAGLDMREGTIGDMAILGITESFQVKRQVLLSAAEAAEVILRVDNIIKAAPRKRVPDHHPC
B1: the binding result in assay [3] and in assay [4] was “binds” throughout.
